Results reported in PMC6787001.
These are yes or no findings as the source states them, for the method shown. Binding seen in cells or lysates may run through a third protein. Some results given as binding are weak or reduced against the parent protein; the word gives no strength.

The chains behind the UniProt entries cited, without tags or fusion partners.
UniProt P46938: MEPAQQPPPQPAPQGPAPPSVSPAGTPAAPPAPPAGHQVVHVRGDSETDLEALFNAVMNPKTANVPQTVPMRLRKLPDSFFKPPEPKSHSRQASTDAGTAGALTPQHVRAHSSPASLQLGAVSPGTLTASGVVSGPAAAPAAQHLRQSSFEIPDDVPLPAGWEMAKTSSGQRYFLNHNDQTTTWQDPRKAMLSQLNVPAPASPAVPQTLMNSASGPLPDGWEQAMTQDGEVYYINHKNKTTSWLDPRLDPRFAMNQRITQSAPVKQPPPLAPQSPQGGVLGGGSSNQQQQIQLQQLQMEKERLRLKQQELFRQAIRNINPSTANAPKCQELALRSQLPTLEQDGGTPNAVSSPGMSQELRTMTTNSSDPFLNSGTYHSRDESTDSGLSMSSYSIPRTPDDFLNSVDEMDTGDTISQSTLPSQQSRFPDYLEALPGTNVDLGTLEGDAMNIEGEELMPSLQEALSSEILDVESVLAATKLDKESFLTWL
UniProt Q02085: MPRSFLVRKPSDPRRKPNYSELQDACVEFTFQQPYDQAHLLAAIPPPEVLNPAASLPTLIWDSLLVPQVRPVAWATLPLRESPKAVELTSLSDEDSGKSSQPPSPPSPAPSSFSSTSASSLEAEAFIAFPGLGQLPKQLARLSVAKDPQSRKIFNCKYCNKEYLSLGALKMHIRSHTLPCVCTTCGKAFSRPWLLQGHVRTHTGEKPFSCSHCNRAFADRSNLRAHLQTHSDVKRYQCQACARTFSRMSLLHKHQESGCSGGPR

Biological target: Yes-associated protein (YAP) (mouse (endogenous in RLSCs)) (UniProt P46938)
Test: co-IP; RLSCs lysed, immunoprecipitated with anti-YAP antibody, Western blot with the indicated antibodies; control immunoprecipitation with normal rabbit antiserum (IgG)

binding: binds
Substance: Snail (from UniProt Q02085 1-264)
